Data as given in the supplement of paper PMC4840960.
Structures can show the parent of a compound that is named as a salt. This is one part of the list. Part of the spread comes from offsets between plates or batches.

The compounds below were run on E18 rat cortical neuron-glia co-culture (assay: total nuclei (DAPI) / Olig2+ nuclei (ratio); higher = more depletion of OPC/OL lineage cells). Conditions: 1 µM; treatment time: 8 days (DIV5-DIV13).
Protocol: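 Primary E18 rat cortical co-cultures (neurons, astrocytes, OPC/OLs) in 96-well plates. NIH Clinical Collection compounds were added on DIV5 in myelination medium at 5 and 1 µM for 8 days, then cells were fixed on DIV13 and stained for MBP, Olig2 and DAPI. Myelination (contiguous aligned MBP fiber length per Olig2+ nucleus) was normalised to plate controls (0.1% DMSO = 0, 1 µM DAPT = 100) as % of DAPT. Each value is from duplicate wells with 4 image fields each. Fiber length/MBP is the fiber score divided by the MBP differentiation score; DAPI/Olig2 is the ratio of total to Olig2+ nuclei.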
`CC(C)[C@]12O[C@H]1[C@@H]1O[C@]13[C@]1(O[C@H]1C[C@H]1C4=C(CC[C@@]13C)C(=O)OC4)[C@@H]2O` [Triptolide] was tested, and the total nuclei was > 40. In the case of `C[C@]12CCC(=O)C=C1CC[C@@H]1[C@@H]2CC[C@@]2(C)[C@H]1CC[C@]2(C)O` [Methyltestosterone], the total nuclei is reported as 3.46. `O[C@@H]1CCCC[C@H]1N1CCC(c2ccccc2)CC1` (racemic) [Vesamicol] showed a total nuclei of 5.07. In the case of `CCCN1C[C@H](CSC)C[C@@H]2c3cccc4[nH]cc(c34)C[C@H]21` [Pergolide], the total nuclei is reported as 3.31. For `CNC(=O)Oc1ccc2c(c1)[C@]1(C)CCN(C)[C@@H]1N2C` [Physostigmine], the total nuclei was 2.72. `Cc1ccc(-c2nc3ccc(C)cn3c2CC(=O)N(C)C)cc1` [Zolpidem] was tested, and the total nuclei was 2.92. `COc1ccc2c(c1)[C@]13CCCC[C@@H]1[C@H](C2)N(C)CC3` [Dextromethorphan] was tested, and the total nuclei was 3.11. Compound `Oc1ccc2c3c1O[C@H]1c4[nH]c5ccccc5c4C[C@@]4(O)[C@@H](C2)N(CC2CC2)CC[C@]314` [Naltrindole] has a total nuclei of 4. With `COc1cc2c(cc1OC)[C@@]13CCN4CC5=CCO[C@H]6CC(=O)N2[C@H]1[C@H]6[C@H]5C[C@H]43` [Brucine] the total nuclei was 2.73. `CC(C)N(CCC(C(N)=O)(c1ccccc1)c1ccccn1)C(C)C` (stereo unspecified) [Disopyramide] gave a total nuclei of 3.93. In the case of `O=C1Nc2ccc(Cl)cc2C(c2ccccc2Cl)=NC1O` (stereo unspecified) [Lorazepam], the total nuclei is reported as 3.56. `CN1CC[C@]23c4c5ccc(O)c4O[C@H]2c2[nH]c4ccccc4c2C[C@@]3(O)[C@H]1C5` [Oxymorphindole] showed a total nuclei of 14.8. Work on `CN1C(=O)CN=C(c2ccccc2)c2cc([N+](=O)[O-])ccc21` [Nimetazepam] yielded a total nuclei of 2.61. `CNC1=Nc2ccc(Cl)cc2C(c2ccccc2)=[N+]([O-])C1` [Chlordiazepoxide] showed a total nuclei of 2.65. Compound `C[C@]12CC[C@H](O)CC1=CC[C@@H]1[C@@H]2CC[C@@]2(C)[C@H]1CC[C@]2(C)O` [Methandriol] has a total nuclei of 2.92. `c1ccc2c3c([nH]c2c1)CNCC3` [Tryptoline] was tested, and the total nuclei was 2.7. `CN1CC[C@]23CCCC[C@H]2[C@H]1Cc1ccc(O)cc13` [Levorphanol] showed a total nuclei of 5. Compound `CC(C)c1cccc(C(C)C)c1O` [Propofol] has a total nuclei of 3.83. In the case of `CN1[C@@H]2C[C@@H](OC(=O)[C@H](CO)c3ccccc3)C[C@H]1[C@@H]1O[C@@H]12` [Scopolamine hydrobromide], the total nuclei is reported as 5.3. `CCCC(C)(COC(N)=O)COC(=O)NC(C)C` (stereo unspecified) [Carisoprodol] was tested, and the total nuclei was 3.52. In the case of `COc1ccc(C(CN(C)C)C2(O)CCCCC2)cc1` (stereo unspecified) [Venlafaxine], the total nuclei is reported as 2.9.

Same assay, conditions: 5 µM; treatment time: 8 days (DIV5-DIV13)
With `CC(C)[C@]12O[C@H]1[C@@H]1O[C@]13[C@]1(O[C@H]1C[C@H]1C4=C(CC[C@@]13C)C(=O)OC4)[C@@H]2O` [Triptolide] the total nuclei was > 40. `C[C@]12CCC(=O)C=C1CC[C@@H]1[C@@H]2CC[C@@]2(C)[C@H]1CC[C@]2(C)O` [Methyltestosterone] was tested, and the total nuclei was 3.8. In the case of `O[C@@H]1CCCC[C@H]1N1CCC(c2ccccc2)CC1` (racemic) [Vesamicol], the total nuclei is reported as 4.2. In the case of `CCCN1C[C@H](CSC)C[C@@H]2c3cccc4[nH]cc(c34)C[C@H]21` [Pergolide], the total nuclei is reported as 5.9. With `CNC(=O)Oc1ccc2c(c1)[C@]1(C)CCN(C)[C@@H]1N2C` [Physostigmine] the total nuclei was 2.6. Work on `Cc1ccc(-c2nc3ccc(C)cn3c2CC(=O)N(C)C)cc1` [Zolpidem] yielded a total nuclei of 3. In the case of `COc1ccc2c(c1)[C@]13CCCC[C@@H]1[C@H](C2)N(C)CC3` [Dextromethorphan], the total nuclei is reported as 3.2. `Oc1ccc2c3c1O[C@H]1c4[nH]c5ccccc5c4C[C@@]4(O)[C@@H](C2)N(CC2CC2)CC[C@]314` [Naltrindole] was tested, and the total nuclei was 4.2. For `COc1cc2c(cc1OC)[C@@]13CCN4CC5=CCO[C@H]6CC(=O)N2[C@H]1[C@H]6[C@H]5C[C@H]43` [Brucine], the total nuclei was 3.1. In the case of `CC(C)N(CCC(C(N)=O)(c1ccccc1)c1ccccn1)C(C)C` (stereo unspecified) [Disopyramide], the total nuclei is reported as 4.8. `O=C1Nc2ccc(Cl)cc2C(c2ccccc2Cl)=NC1O` (stereo unspecified) [Lorazepam] showed a total nuclei of 5.3. Work on `CN1C(=O)CN=C(c2ccccc2)c2cc([N+](=O)[O-])ccc21` [Nimetazepam] yielded a total nuclei of 2.7. `CNC1=Nc2ccc(Cl)cc2C(c2ccccc2)=[N+]([O-])C1` [Chlordiazepoxide] was tested, and the total nuclei was 2.8. Compound `C[C@]12CC[C@H](O)CC1=CC[C@@H]1[C@@H]2CC[C@@]2(C)[C@H]1CC[C@]2(C)O` [Methandriol] has a total nuclei of 2.9. `c1ccc2c3c([nH]c2c1)CNCC3` [Tryptoline] was tested, and the total nuclei was 2.9. `CN1CC[C@]23CCCC[C@H]2[C@H]1Cc1ccc(O)cc13` [Levorphanol] gave a total nuclei of 4.1. With `CC(C)c1cccc(C(C)C)c1O` [Propofol] the total nuclei was 3.7. In the case of `CN1[C@@H]2C[C@@H](OC(=O)[C@H](CO)c3ccccc3)C[C@H]1[C@@H]1O[C@@H]12` [Scopolamine hydrobromide], the total nuclei is reported as 5. Compound `CCCC(C)(COC(N)=O)COC(=O)NC(C)C` (stereo unspecified) [Carisoprodol] has a total nuclei of 3.7. Work on `COc1ccc(C(CN(C)C)C2(O)CCCCC2)cc1` (stereo unspecified) [Venlafaxine] yielded a total nuclei of 2.9.
